According to PubChem BioAssay AID330 (DTP/NCI, 2004):
The list shows only some results of the screen, not a fair sample: it gathers tests that were run many times, whatever their T/C, doses with no T/C, and many T/C values between a quarter and a half above the control. Other doses and runs of a compound stand elsewhere. T/C is the treated group as % of the vehicle group. Some entries give survivors of the animals treated and no T/C: the source holds a T/C of zero for them, seemingly a mark for toxic or unscored doses. Some survivor counts are full or nearly so, which does not show that the dose was tolerated: the source hardly ever lists a survival T/C far under the control, and the zero likely stands for such cases as well. Counts of survivors are from the toxicity check (mostly the fifth day) where no day follows; animals may have died later. Schedules are NCI's codes, taken here to give the interval after Q, in days (D) or hours (H), and the number of doses after X. Where survival is the endpoint, the PubChem record calls one and a half times the control and up active, and a quarter to a half above the control has no call in these data; cut-offs in other NCI protocols can differ. Some T/C values are followed by the survivors on the day toxicity was checked, most often the fifth; where none is given, no animal had died by that day. Some entries hold several experiments; the values are given in rising order.

System: P388 leukemia ip, CD2F1 mice, survival T/C
Assay: NCI In Vivo Anticancer Drug Screen. Data for tumor model P388 Leukemia (intraperitoneal) in CD2F1 (CDF1) mice
Settings: T/C endpoint: median survival time, higher T/C = longer survival
[1] = dose: 50.0 mg/kg/injection, schedule: Q01DX009 (ip), vehicle: saline
[2] = dose: 100.0 mg/kg/injection, schedule: Q01DX009 (ip), vehicle: saline
[3] = dose: 200.0 mg/kg/injection, schedule: Q01DX009 (ip), vehicle: saline
[4] = dose: 400.0 mg/kg/injection, schedule: Q04DX003 (ip), vehicle: saline with Tween-80
[5] = dose: 25.0 mg/kg/injection, schedule: Q04DX003 (ip), vehicle: other

COC(=O)[C@@]12OC[C@]34[C@H]([C@@H](O)[C@@H]1O)[C@@]1(C)CC(=O)C(O)=C(C)[C@@H]1C[C@H]3OC(=O)[C@H](OC(=O)C(Cc1ccccc1)NC(=O)OC(C)(C)C)[C@@H]24 (stereo not given in full)
T/C (dose: 0.5 mg/kg/injection, schedule: Q01DX005 (ip), vehicle: Klucel (hydroxypropylcellulose) (HPC)): 128 % of control | T/C (dose: 1.0 mg/kg/injection, schedule: Q01DX005 (ip), vehicle: Klucel (hydroxypropylcellulose) (HPC)): 125 and 127 % of control | T/C (dose: 2.0 mg/kg/injection, schedule: Q01DX005 (ip), vehicle: Klucel (hydroxypropylcellulose) (HPC)): 131 and 132 % of control | T/C (dose: 4.0 mg/kg/injection, schedule: Q01DX005 (ip), vehicle: Klucel (hydroxypropylcellulose) (HPC)): 137 [5 of 6 alive] and 145 % of control | T/C (dose: 8.0 mg/kg/injection, schedule: Q01DX005 (ip), vehicle: Klucel (hydroxypropylcellulose) (HPC)): 149 % of control

CSc1nccnn1
survivor count [1]: 2 of 6 | survivor count [2]: 0 of 6 | survivor count [3]: 0 of 6

Cc1ccc(C(=O)OC(CCN(C)C)c2ccccc2)cc1 (stereo not given)
survivor count [3]: 6 of 6

CCOC(=O)C(NC(=O)C(Cc1ccc(N(CCCl)CCCl)cc1)NC(C)=O)C(C)C (stereo not given)
T/C (dose: 20.0 mg/kg/injection, schedule: Q04DX003 (ip), vehicle: other): 128 % of control | T/C (dose: 25.0 mg/kg/injection, schedule: Q04DX003 (ip), vehicle: saline with Tween-80): 136 % of control | T/C (dose: 40.0 mg/kg/injection, schedule: Q04DX003 (ip), vehicle: other): 137 % of control | T/C (dose: 75.0 mg/kg/injection, schedule: Q04DX003 (ip), vehicle: other): 136 % of control | T/C (dose: 80.0 mg/kg/injection, schedule: Q04DX003 (ip), vehicle: other): 143 % of control | survivor count [4]: 5 of 6

COc1cccc2c1C(=O)c1c(O)c3c(c(O)c1C2=O)C[C@@](O)(C(=O)CO)C[C@@H]3OC1CC([N+](C)(C)C)C(O)C(C)O1 (stereo not given in full)
T/C (dose: 5.56 mg/kg/injection, schedule: Q01DX009 (ip), vehicle: water): 131 % of control | T/C (dose: 6.25 mg/kg/injection, schedule: Q01DX009 (ip), vehicle: water): 142 % of control | T/C (dose: 8.3 mg/kg/injection, schedule: Q01DX009 (ip), vehicle: water): 144 % of control | T/C (dose: 10.8 mg/kg/injection, schedule: Q04DX003 (ip), vehicle: water): 131 % of control | T/C (dose: 18.0 mg/kg/injection, schedule: Q04DX003 (ip), vehicle: water): 126 % of control | survivor count (dose: 18.8 mg/kg/injection, schedule: Q01DX009 (ip), vehicle: water): 4 of 6 | T/C (dose: 25.0 mg/kg/injection, schedule: Q01DX001 (ip), vehicle: water): 131 % of control | survivor count (dose: 25.0 mg/kg/injection, schedule: Q01DX009 (ip), vehicle: water): 5 of 6 | survivor count (dose: 50.0 mg/kg/injection, schedule: Q01DX001 (ip), vehicle: water): 3 of 6 | survivor count (dose: 50.0 mg/kg/injection, schedule: Q01DX009 (ip), vehicle: water): 0 of 6 | survivor count (dose: 100.0 mg/kg/injection, schedule: Q01DX001 (ip), vehicle: water): 0 of 6 | survivor count (dose: 100.0 mg/kg/injection, schedule: Q01DX009 (ip), vehicle: water): 0 of 6 | survivor count (dose: 200.0 mg/kg/injection, schedule: Q01DX001 (ip), vehicle: water): 0 of 6 | survivor count (dose: 400.0 mg/kg/injection, schedule: Q01DX001 (ip), vehicle: water): 0 of 6

CN(C)c1ccc(C(N)=O)cn1
T/C (dose: 3.13 mg/kg/injection, schedule: Q01DX009 (ip), vehicle: saline with Tween-80): 131 % of control | survivor count (dose: 100.0 mg/kg/injection, schedule: Q04DX003 (ip), vehicle: saline with Tween-80): 5 of 6 | survivor count (dose: 200.0 mg/kg/injection, schedule: Q04DX003 (ip), vehicle: saline with Tween-80): 4 of 6 | survivor count [4]: 3 of 6

COc1cccc2c1C(=O)c1c(O)c3c(c(O)c1C2=O)CC(O)(/C(C)=N/NC(=S)c1ccccc1)CC3OC1CC(N)C(O)C(C)O1 (stereo not given)
survivor count (dose: 1.56 mg/kg/injection, schedule: Q01DX009 (ip), vehicle: other): 3 of 4 | T/C (dose: 1.56 mg/kg/injection, schedule: Q04DX003 (ip), vehicle: saline): 137 % of control | T/C (dose: 3.13 mg/kg/injection, schedule: Q04DX003 (ip), vehicle: saline): 146 % of control

CCCCCCC(=O)CC(SCC(NC(C)=O)C(=O)O)c1ccccc1Cl (stereo not given)
survivor count (dose: 240.0 mg/kg/injection, schedule: Q01DX005 (ip), vehicle: saline): 1 of 6

O=C(O)c1ccc2c3c(n[se]c13)-c1ccccc1C2=O
survivor count (dose: 200.0 mg/kg/injection, schedule: Q01DX005 (ip), vehicle: Klucel (hydroxypropylcellulose) (HPC)): 0 of 5

CCOC(=O)NN(C(=O)OCC)C(C)(C)C(C)=O
survivor count (dose: 100.0 mg/kg/injection, schedule: Q01DX001 (ip), vehicle: saline): 3 of 6

Nc1cc2c(c[n+](CCCBr)c3ccccc23)c2ccccc12
T/C (dose: 3.13 mg/kg/injection, schedule: Q04DX003 (ip), vehicle: other): 128 % of control | T/C (dose: 6.25 mg/kg/injection, schedule: Q04DX003 (ip), vehicle: other): 142 % of control | T/C (dose: 12.5 mg/kg/injection, schedule: Q04DX003 (ip), vehicle: other): 127 and 140 % of control [4 of 6 alive] | T/C [5]: 137 % of control [5 of 6 alive] | survivor count [5]: 0 of 6 | survivor count (dose: 50.0 mg/kg/injection, schedule: Q04DX003 (ip), vehicle: other): 1 of 6 | survivor count (dose: 100.0 mg/kg/injection, schedule: Q04DX003 (ip), vehicle: other): 0 of 6

CCn1c(O)c(N=NC(=S)SCc2ccccc2)c2ccccc21
survivor count (dose: 12.5 mg/kg/injection, schedule: Q01DX009 (ip), vehicle: suspension in saline): 6 of 6 | survivor count (dose: 25.0 mg/kg/injection, schedule: Q01DX009 (ip), vehicle: suspension in saline): 6 of 6 | survivor count [1]: 6 of 6 | survivor count [2]: 6 of 6

CCN(CC)CCN(Cc1ccccc1)C(=O)C1c2ccccc2Oc2ccccc21
survivor count (dose: 200.0 mg/kg/injection, schedule: Q01DX005 (ip), vehicle: saline with Tween-80): 0 of 5

O=C(OCC12OC1C(=O)C1OC1C2O)c1ccccc1 (stereo not given)
survivor count (dose: 37.5 mg/kg/injection, schedule: Q04DX002 (ip), vehicle: saline with Tween-80): 0 of 6 | survivor count (dose: 75.0 mg/kg/injection, schedule: Q04DX002 (ip), vehicle: saline with Tween-80): 0 of 6 | survivor count (dose: 150.0 mg/kg/injection, schedule: Q04DX002 (ip), vehicle: saline with Tween-80): 0 of 6

CC(O)C(O)C(O)C(O)C=O (stereo not given)
T/C (dose: 120.0 mg/kg/injection, schedule: Q01DX005 (ip), vehicle: saline): 126 % of control
